# According to publication PMC3668167, “Ski-interacting protein (SKIP) interacts with androgen receptor in the nucleus and modulates androgen-dependent transcription” (BMC Biochemistry, 2013):
# Chains of the proteins cited; added tags and fusions are not shown.
# UniProt P10275: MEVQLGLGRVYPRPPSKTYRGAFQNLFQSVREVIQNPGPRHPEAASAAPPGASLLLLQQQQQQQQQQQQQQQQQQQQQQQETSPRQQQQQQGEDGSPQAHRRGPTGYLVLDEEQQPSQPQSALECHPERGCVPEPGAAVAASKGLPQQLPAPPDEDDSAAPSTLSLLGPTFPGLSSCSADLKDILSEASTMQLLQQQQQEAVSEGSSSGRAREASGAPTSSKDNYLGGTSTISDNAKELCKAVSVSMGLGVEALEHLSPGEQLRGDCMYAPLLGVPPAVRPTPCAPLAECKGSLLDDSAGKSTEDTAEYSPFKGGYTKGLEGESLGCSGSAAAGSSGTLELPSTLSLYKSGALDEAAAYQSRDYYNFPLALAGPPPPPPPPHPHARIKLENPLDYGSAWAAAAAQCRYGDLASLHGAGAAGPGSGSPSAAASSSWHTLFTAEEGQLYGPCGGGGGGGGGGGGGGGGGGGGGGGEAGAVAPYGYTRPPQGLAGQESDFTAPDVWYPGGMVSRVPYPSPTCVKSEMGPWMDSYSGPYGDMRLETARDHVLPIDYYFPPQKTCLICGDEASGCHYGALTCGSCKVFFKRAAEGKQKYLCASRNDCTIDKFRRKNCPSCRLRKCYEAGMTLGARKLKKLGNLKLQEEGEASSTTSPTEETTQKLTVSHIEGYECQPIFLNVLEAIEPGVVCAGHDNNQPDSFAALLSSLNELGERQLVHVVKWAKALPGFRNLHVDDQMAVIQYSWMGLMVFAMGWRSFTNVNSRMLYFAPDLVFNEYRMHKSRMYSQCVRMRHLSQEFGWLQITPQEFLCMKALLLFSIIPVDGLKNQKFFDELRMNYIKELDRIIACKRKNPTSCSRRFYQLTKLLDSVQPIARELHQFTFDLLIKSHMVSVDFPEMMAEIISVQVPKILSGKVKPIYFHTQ
# These are yes or no findings as the source states them, for the method shown. In cells and extracts the contact can be indirect. Some binding calls cover weakened binding; strength is not graded here. Sequences can lack the tags named with a protein.
# T1: EYFP-SKIP (human Skip cDNA in pEYFP-C1) (human) (UniProt Q13573)
# T1 sequence: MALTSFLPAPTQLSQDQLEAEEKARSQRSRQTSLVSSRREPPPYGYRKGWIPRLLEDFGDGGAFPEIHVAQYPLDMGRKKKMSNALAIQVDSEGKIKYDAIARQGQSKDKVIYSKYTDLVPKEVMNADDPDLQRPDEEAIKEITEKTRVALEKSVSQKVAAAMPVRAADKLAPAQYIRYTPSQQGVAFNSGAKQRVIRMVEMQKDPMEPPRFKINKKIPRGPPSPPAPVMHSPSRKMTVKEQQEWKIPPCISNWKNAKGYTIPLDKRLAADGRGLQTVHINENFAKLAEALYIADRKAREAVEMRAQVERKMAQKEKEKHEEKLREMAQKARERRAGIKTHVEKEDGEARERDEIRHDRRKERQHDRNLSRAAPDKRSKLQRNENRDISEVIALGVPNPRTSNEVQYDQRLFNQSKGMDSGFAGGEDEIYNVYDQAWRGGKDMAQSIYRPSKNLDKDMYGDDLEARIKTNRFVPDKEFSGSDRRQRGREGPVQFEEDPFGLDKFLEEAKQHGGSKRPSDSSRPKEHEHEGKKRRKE
# T2: HA-tagged Ski-interacting protein (SKIP-pCGN) (human) (UniProt Q13573)
# T2 sequence: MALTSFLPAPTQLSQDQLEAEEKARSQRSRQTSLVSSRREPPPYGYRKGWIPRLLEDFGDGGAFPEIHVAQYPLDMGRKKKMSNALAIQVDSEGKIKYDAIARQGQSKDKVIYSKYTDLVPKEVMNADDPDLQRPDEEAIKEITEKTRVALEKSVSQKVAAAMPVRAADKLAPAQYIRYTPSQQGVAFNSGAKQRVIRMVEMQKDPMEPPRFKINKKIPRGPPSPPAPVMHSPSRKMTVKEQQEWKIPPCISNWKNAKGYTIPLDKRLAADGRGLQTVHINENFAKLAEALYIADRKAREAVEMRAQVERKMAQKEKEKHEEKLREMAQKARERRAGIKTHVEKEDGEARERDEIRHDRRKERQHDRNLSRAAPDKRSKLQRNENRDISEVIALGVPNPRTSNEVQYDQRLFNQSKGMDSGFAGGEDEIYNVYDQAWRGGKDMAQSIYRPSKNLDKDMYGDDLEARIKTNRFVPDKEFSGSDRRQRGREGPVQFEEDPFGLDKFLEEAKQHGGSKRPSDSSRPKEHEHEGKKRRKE
# Experiments:
# [1] = target: T1, EYFP-SKIP (human Skip cDNA in pEYFP-C1) (human); assay: FRET or BRET; sensitised acceptor emission FRET imaging (FRET2 index), confocal time series of live serum-starved BHK cells stimulated with 10 nM DHT
# [2] = target: T2, HA-tagged Ski-interacting protein (SKIP-pCGN) (human); assay: co-IP; COS-7 cells co-transfected with pCMV-AR and SKIP-pCGN, with or without 1 nM DHT; RIPA lysates, precipitated with rabbit anti-AR (N20) or rabbit anti-HA and protein G-Sepharose, 4°C; blotted for HA or AR
# [3] = target: androgen receptor, full-length wild type (pCMV-AR) (human) (UniProt P10275); assay: as above
molecule,measurement,setting,value
AR-ECFP (AR-pECFP-N1) (from UniProt P10275 1-920) (receptor),binding,[1],binds
"androgen receptor, full-length wild type (pCMV-AR) (from UniProt P10275 1-920)",binding,[2],binds
"HA-tagged Ski-interacting protein (SKIP-pCGN) (natural protein, human, UniProt Q13573 1-536, looked up) MALTSFLPAPTQLSQDQLEAEEKARSQRSRQTSLVSSRREPPPYGYRKGWIPRLLEDFGDGGAFPEIHVAQYPLDMGRKKKMSNALAIQVDSEGKIKYDAIARQGQSKDKVIYSKYTDLVPKEVMNADDPDLQRPDEEAIKEITEKTRVALEKSVSQKVAAAMPVRAADKLAPAQYIRYTPSQQGVAFNSGAKQRVIRMVEMQKDPMEPPRFKINKKIPRGPPSPPAPVMHSPSRKMTVKEQQEWKIPPCISNWKNAKGYTIPLDKRLAADGRGLQTVHINENFAKLAEALYIADRKAREAVEMRAQVERKMAQKEKEKHEEKLREMAQKARERRAGIKTHVEKEDGEARERDEIRHDRRKERQHDRNLSRAAPDKRSKLQRNENRDISEVIALGVPNPRTSNEVQYDQRLFNQSKGMDSGFAGGEDEIYNVYDQAWRGGKDMAQSIYRPSKNLDKDMYGDDLEARIKTNRFVPDKEFSGSDRRQRGREGPVQFEEDPFGLDKFLEEAKQHGGSKRPSDSSRPKEHEHEGKKRRKE",binding,[3],binds
